Earlier results, collected in patent publication US6664290B1, “Oral or vaginal administration of mesoprostol in third stage labor” (University College London, priority 1994, dated 2003).
At least one compound was matched to its structure with a doubt left.

Assays:
[1] = after one year of suboptimal storage; cited from earlier work
[2] = system: uterus (uterotonic contraction); conditions: intramuscular route, as part of Syntometrine; cited from earlier work

C[C@@H](CO)NC(=O)[C@@H]1C=C2c3cccc4[nH]cc(c34)C[C@H]2N(C)C1 [Ergometrine]
Therapeutic activity lost [1]: 90%
Time to more sustained uterotonic contraction, after the syntocinon action [2]: five
